Several values for one entry are separate records, joined by “and”; a condition that tells them apart may be missing. Equal values may be shown once. The shares of active, inactive and inconclusive entries below differ from those in the screen. Where the call is inconclusive, the potency comes from a doubtful curve fit. Activity calls are given as the source filed them. Calls follow the shape of the dose curve; as a rule, active = well fitted curve in either direction with a large enough effect; inconclusive = small, poorly fitted or top-dose-only effect; inactive = no such curve, though single readings can be large or run the other way.
These molecules were tested against Lysosomal alpha-glucosidase (Homo sapiens) (UniProt P10253) (assay: Confirmation of Inhibitors and Activators of Human alpha-Glucosidase From Spleen Homogenate). Conditions: alpha-glucosidase enzyme activity; series mostly up to 60.5 µM.
Outline: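 Compounds titrated against spleen-homogenate alpha-glucosidase, pH 5.0, 1 mM 4-MU-glucoside substrate, 37 C for 40 min. Fluorescence after pH 10 stop, normalised to no-enzyme and enzyme controls; Hill-equation AC50.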
For `CC(=O)N1CCN(S(=O)(=O)c2ccc3c(c2)CC(=O)N3)CC1`, the Potency was active: 29.8 µM [inhibitor].
With `CCc1ccc(-c2nc(-c3cc4ccccc4oc3=O)sc2CC)cc1` the Potency was inconclusive: 12.6 µM [activator, full curve, poor fit].
In the case of `CC(=O)Oc1ccc2cc(-c3nc4c(s3)CCc3ccccc3-4)c(=O)oc2c1`, the Potency is reported as inconclusive: 28.2 µM [activator, single point].
For `CCCN1CNc2c(c(=O)[nH]c(=S)n2CCc2ccccc2C)C1`, the Potency was inconclusive: 15.8 µM [activator, full curve, poor fit].
With `O=C1c2cc(S(=O)(=O)N3CCOCC3)ccc2-c2ccc(S(=O)(=O)N3CCOCC3)cc21` the Potency was “inactive”.
In the case of `O=c1oc2ccccc2cc1-c1nc2c(s1)CCCC2`, the Potency is reported as inconclusive: 14.1 µM [activator, partial curve].
With `Cc1ccc(/C=C\c2nccc3c2[nH]c2ccccc23)cc1` the Potency was inconclusive: 17.8 µM [activator, partial curve].
In the case of `CC(=O)c1ccc(N2CCN(S(=O)(=O)c3cc4c(cc3Cl)NC(=O)C4)CC2)cc1`, the Potency is reported as active: 1.83 µM [inhibitor] and active: 5.17 µM [inhibitor].
For `COc1ccc(/C=C/c2nccc3c2[nH]c2ccccc23)cc1`, the Potency was inconclusive: 11.2 µM [activator, partial curve].
With `N=C1c2c(cc(=O)n3c2[nH]c2ccccc23)CN1CCN1CCOCC1` the Potency was inconclusive: 15.8 µM [activator, full curve].
In the case of `CCCN1CNc2c(c(=O)[nH]c(=S)n2CCc2c(OC)cccc2OC)C1`, the Potency is reported as “inactive”.
`O=C(O)C[C@@H]1C(=O)O[C@@H]2C(COC(=O)c3cc(O)c(O)c(O)c3)O[C@@H](OC(=O)c3cc(O)c(O)c(O)c3)[C@@H](OC(=O)c3cc(O)c(O)c4c3[C@H]1[C@H](O)C(=O)O4)[C@H]2OC(=O)c1cc(O)c(O)c(O)c1` (some centres undefined) was tested, and the Potency was “inactive”.
For `CCCN1CNc2c(c(=O)[nH]c(=S)n2CCc2ccsc2)C1`, the Potency was inconclusive: 50.1 µM [activator, partial curve].
For `OCC(CO)NC1C[C@](O)(CO)[C@@H](O)[C@H](O)[C@H]1O` (some centres undefined), the Potency was “inactive”.
With `COc1ccc2c(c1)CCc1cn3ncc(C#N)c3nc1-2` the Potency was inconclusive: 3.98 µM [activator, full curve, poor fit].
In the case of `O=C1Cc2cc(S(=O)(=O)N3CCN(c4ccc(F)cc4)CC3)ccc2N1`, the Potency is reported as inconclusive: 119 µM [inhibitor, partial curve].
`COC(=O)c1ccc(N2CCN(S(=O)(=O)c3ccc4c(c3)CC(=O)N4)CC2)cc1` was tested, and the Potency was inconclusive: 20.6 µM [inhibitor, partial curve].
With `O=Cc1ccc(N2CCN(S(=O)(=O)c3ccc4c(c3)CC(=O)N4)CC2)cc1` the Potency was active: 4.61 µM [inhibitor].
In the case of `c1ccc(Cn2c(-c3cccs3)nc3nc4ccccc4nc32)cc1`, the Potency is reported as inconclusive: 12.6 µM [activator, full curve].

Reference: PubChem BioAssay AID2113 (National Center for Advancing Translational Sciences (NCATS), 2009)
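For potency in this document: fluorescence of 4-methylumbelliferone released from a fluorogenic glucopyranoside substrate at pH 5.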
Potency is read from the fitted curve at half-maximal effect.
